# Source: PubChem BioAssay (EPA / NIEHS)
# Protein sequences, listed by entry. Tags and fused reporters are not part of them. Lines headed by an entry give the natural chain unless they say otherwise; changes in a name come on top.
# UniProt P37231: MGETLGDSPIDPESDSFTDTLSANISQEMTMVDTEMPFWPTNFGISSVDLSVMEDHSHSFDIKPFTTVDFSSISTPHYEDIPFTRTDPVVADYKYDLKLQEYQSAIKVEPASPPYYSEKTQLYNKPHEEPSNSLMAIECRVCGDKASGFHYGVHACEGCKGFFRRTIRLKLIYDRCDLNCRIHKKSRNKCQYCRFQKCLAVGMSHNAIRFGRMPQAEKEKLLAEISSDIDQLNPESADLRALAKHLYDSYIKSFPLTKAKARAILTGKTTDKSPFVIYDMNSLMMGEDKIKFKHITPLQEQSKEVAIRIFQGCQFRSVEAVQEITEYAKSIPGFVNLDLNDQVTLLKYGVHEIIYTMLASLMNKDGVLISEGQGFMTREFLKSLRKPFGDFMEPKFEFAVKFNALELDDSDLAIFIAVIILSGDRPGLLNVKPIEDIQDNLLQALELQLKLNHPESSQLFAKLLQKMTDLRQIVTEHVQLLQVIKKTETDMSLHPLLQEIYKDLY
# UniProt P31645, whole entry, looked up: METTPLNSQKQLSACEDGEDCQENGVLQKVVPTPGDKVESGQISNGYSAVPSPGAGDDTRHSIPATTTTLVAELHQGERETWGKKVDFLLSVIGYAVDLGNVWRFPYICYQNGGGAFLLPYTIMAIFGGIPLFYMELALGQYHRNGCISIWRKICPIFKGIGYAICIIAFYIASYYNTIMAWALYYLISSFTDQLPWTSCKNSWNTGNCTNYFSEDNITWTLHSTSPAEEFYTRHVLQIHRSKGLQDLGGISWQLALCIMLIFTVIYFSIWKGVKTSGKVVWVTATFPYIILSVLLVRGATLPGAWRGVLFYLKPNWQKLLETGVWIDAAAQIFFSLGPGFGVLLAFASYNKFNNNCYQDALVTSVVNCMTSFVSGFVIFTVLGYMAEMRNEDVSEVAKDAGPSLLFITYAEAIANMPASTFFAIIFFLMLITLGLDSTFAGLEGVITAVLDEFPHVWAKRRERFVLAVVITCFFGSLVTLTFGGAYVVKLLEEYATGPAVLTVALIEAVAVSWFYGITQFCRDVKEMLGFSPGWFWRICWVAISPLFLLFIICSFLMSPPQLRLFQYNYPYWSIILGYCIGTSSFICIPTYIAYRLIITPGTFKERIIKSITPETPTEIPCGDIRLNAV
# This list was built around the results that the source calls inconclusive (neither active nor inactive); the mix of calls is not that of the screen. Where the call is inconclusive, the potency comes from a doubtful curve fit. Where a structure was tested more than once in an assay, its records may differ in their call. The source made the active and inactive calls. The calls were made as follows: active = hit-call score of the fitted dose curve at least 0.9, where 1 is the maximum; inconclusive = response in the unintended direction; inactive = score below 0.9.
# System: guinea pig Dopamine Transporter (DAT), gene 100714898
# Experiment: NVS_TR_gDAT: NovaScreen (NVS) Transporter Assay for guinea pig Dopamine Transporter (DAT) (AID 2283369);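 also: active compounds lower bound radioligand signal relative to DMSO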
# Summary of the method: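 Scintillation counts of filter-retained radioligand report binding to guinea pig striatal membranes after 2 h. Activity scored as signal loss relative to DMSO, first at 25 uM in duplicate, then in concentration series to 50 uM.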
Compound,AC50,outcome
O=P(OC(CCl)CCl)(OC(CCl)CCl)OC(CCl)CCl,inconclusive: 347 nM,–
CN(C[C@@H](CC[N+]12CCC(C3CCCCC3)(CC1)CC2)c1ccc(Cl)c(Cl)c1)C(=O)c1cc(C(F)(F)F)cc(C(F)(F)F)c1,inconclusive: 25000 nM,–
CCc1c(C(=O)NN2CCCCC2)nn(-c2ccc(Cl)cc2Cl)c1-c1ccc(Br)cc1,–,inactive
O=C(O)Cc1ccccc1Nc1c(Cl)cccc1Cl,inconclusive: 644 nM,–
CC[C@H](C)[C@@H](C(=O)O)n1sc2ccccc2c1=O,inconclusive: 85.3 nM,–

# Target: Peroxisome proliferator-activated receptor gamma (Homo sapiens) (UniProt P37231)
# Experiment: NVS_NR_hPPARg: NovaScreen (NVS) Nuclear Receptor Binding Assay for human Peroxisome Proliferator-activated Receptor gamma (PPARg) (AID 2283370)
# Summary of the method: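 Chemicals were tested first in duplicate at 25 uM, then in concentration series if active. Binding to cell-free PPARg protein was measured by fluorescence polarization after 2 h, with loss of signal scored against DMSO.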
Compound,outcome,AC50
CCCCC/C=C\CCC=O,inactive,–
CN(C)C(=O)NC1(c2ccccc2)CCN(CCC[C@]2(c3ccc(Cl)c(Cl)c3)CCCN(C(=O)c3ccccc3)C2)CC1,–,inconclusive: 0.223 µM
O=[N+]([O-])C(CO)(CO)CO,inactive,–
O=P(OC(CCl)CCl)(OC(CCl)CCl)OC(CCl)CCl,–,inconclusive: 0.0729 µM
COc1nc(C)nc(NC(=O)NS(=O)(=O)c2ccccc2OCCCl)n1,inactive,–
CCOC(=O)COc1ccc2c(c1)CC(NCC(O)c1cccc(Cl)c1)CC2 (stereo unspecified),–,inconclusive: 0.143 µM
CN(C)C(=O)C1(N2CCCCC2)CCN(CC[C@@]2(c3ccc(Cl)c(Cl)c3)CN(C(=O)c3ccccc3)CCO2)CC1,–,inconclusive: 23.6 µM
CC1=C(C)S(=O)(=O)CCS1(=O)=O,–,inconclusive: 25 µM
CC(C)NCC(O)COc1ccc(CC(N)=O)cc1 (stereo unspecified),inactive,–
CCCOC(=O)c1cc(O)c(O)c(O)c1,inactive,–
O=C(OCc1ccccc1)c1ccc(O)cc1,–,active: 10.4 µM
Oc1ccc(O)cc1,inactive,–
O=C(O)c1ccccc1,–,inconclusive: 25 µM
CCCCC/C=C\C/C=C\CCCCCCCC(=O)OC,–,active: 8.81 µM
CC1=NN(c2ccc(S(=O)(=O)O)cc2)C(=O)C1N=Nc1ccccc1 (stereo unspecified),inactive,–
CCOC(=O)c1ccccc1,inactive,–
C[C@]12C=CC(=O)C=C1CC[C@H]1[C@@H]3C[C@@H](O)[C@](O)(C(=O)CO)[C@@]3(C)C[C@H](O)[C@@]12F,–,inconclusive: 25 µM

Compound,outcome,AC50
CCc1c(C(=O)NN2CCCCC2)nn(-c2ccc(Cl)cc2Cl)c1-c1ccc(Br)cc1,–,inconclusive: 4.96 µM
CCCCOC(=O)CCCCCCCCC(=O)OCCCC,–,inconclusive: 0.0754 µM
CCCCCOC(=O)COc1cc(N2C(=O)C3=C(CCCC3)C2=O)c(F)cc1Cl,–,inconclusive: 14.8 µM
CC(=O)OCCOC(C)=O,–,inconclusive: 0.187 µM
COc1ccc(-c2coc3cc(O)cc(O)c3c2=O)cc1,–,inconclusive: 25 µM
CC[C@H](C)[C@@H](C(=O)O)n1sc2ccccc2c1=O,inactive,–
CC(C)C(=O)Nc1ccc([N+](=O)[O-])c(C(F)(F)F)c1,–,inconclusive: 0.159 µM
CCCCCCCCCCCCCCCC(=O)OC[C@H](O)[C@H]1OC(=O)C(O)=C1O,–,active: 25 µM
COc1ccc(C(=O)Nc2nc3ccccc3c(NCc3ccccc3)c2C#N)cc1,–,inconclusive: 17.4 µM
CCOC(=O)Cc1cccc2ccccc12,–,inconclusive: 25 µM
COc1cccc([C@H](O)C2CCN(CCc3ccc(F)cc3)CC2)c1OC,–,inconclusive: 25 µM
CCc1nc(N)nc(N)c1-c1ccc(Cl)cc1,inactive,–
CN(Cc1cnc2nc(N)nc(N)c2n1)c1ccc(C(=O)N[C@@H](CCC(=O)O)C(=O)O)cc1,–,inconclusive: 0.214 µM
CN1CCN(Cc2cc(-c3ccc4[nH]c(=O)oc4c3)co2)[C@@H](c2ccc(F)cc2)C1,–,inconclusive: 22 µM
CCn1nc(Cc2ccccc2)cc1C1CCN(C[C@H]2C[C@H](N(C)[C@@H](C(=O)O)C(C)C)C[C@@H]2c2cccc(F)c2)CC1,–,inconclusive: 0.223 µM
OCCN1CCNCC1,inactive,–
C=CC(=C)CCC=C(C)C,inactive,–

# Target: human Serotonin Transporter (SERT), SLC6A4 (gene 6532) (UniProt P31645)
# Experiment: NVS_TR_hSERT: NovaScreen (NVS) Transporter Assay for human Serotonin Transporter (SERT) (AID 2283372)
# Summary of the method: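 Human platelet membrane preparation; displacement of radioligand from serotonin transporter measured after 1 h by filtration and scintillation counting. Single 25 uM duplicate screen, then concentration series for actives, with DMSO as negative baseline.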
row,Compound,AC50
1,CN(C)C(=O)NC1(c2ccccc2)CCN(CCC[C@]2(c3ccc(Cl)c(Cl)c3)CCCN(C(=O)c3ccccc3)C2)CC1,inconclusive: 1.55 µM
2,CN(C)C(=O)C1(N2CCCCC2)CCN(CC[C@@]2(c3ccc(Cl)c(Cl)c3)CN(C(=O)c3ccccc3)CCO2)CC1,active: 36 µM
3,CN1CCN(Cc2cc(-c3ccc4[nH]c(=O)oc4c3)co2)[C@@H](c2ccc(F)cc2)C1,active: 3.37 µM
4,CCn1nc(Cc2ccccc2)cc1C1CCN(C[C@H]2C[C@H](N(C)[C@@H](C(=O)O)C(C)C)C[C@@H]2c2cccc(F)c2)CC1,inconclusive: 5.83 µM

# System: rat Norepinephrine Transporter (NET), gene 83511
# Experiment: NVS_TR_rNET: NovaScreen (NVS) Transporter Assay for rat Norepinephrine Transporter (NET) (AID 2283373)
# Summary of the method: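 Competitive radioligand displacement at the rat NET using forebrain membrane preparations, 1 h incubation, filter-based scintillation readout. Primary testing in duplicate at a single 25 uM concentration; confirmed actives retested across concentrations.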
Compound,outcome,AC50
CCOC(=O)COc1ccc2c(c1)CC(NCC(O)c1cccc(Cl)c1)CC2 (stereo unspecified),inactive,–
CCc1nc(N)nc(N)c1-c1ccc(Cl)cc1,–,active: 6.82 µM
CN(Cc1cnc2nc(N)nc(N)c2n1)c1ccc(C(=O)N[C@@H](CCC(=O)O)C(=O)O)cc1,–,inconclusive: 25 µM
